The results in this text go back to paper PMC4852720.

The chains behind the UniProt entries cited, without tags or fusion partners.
UniProt Q96GX5: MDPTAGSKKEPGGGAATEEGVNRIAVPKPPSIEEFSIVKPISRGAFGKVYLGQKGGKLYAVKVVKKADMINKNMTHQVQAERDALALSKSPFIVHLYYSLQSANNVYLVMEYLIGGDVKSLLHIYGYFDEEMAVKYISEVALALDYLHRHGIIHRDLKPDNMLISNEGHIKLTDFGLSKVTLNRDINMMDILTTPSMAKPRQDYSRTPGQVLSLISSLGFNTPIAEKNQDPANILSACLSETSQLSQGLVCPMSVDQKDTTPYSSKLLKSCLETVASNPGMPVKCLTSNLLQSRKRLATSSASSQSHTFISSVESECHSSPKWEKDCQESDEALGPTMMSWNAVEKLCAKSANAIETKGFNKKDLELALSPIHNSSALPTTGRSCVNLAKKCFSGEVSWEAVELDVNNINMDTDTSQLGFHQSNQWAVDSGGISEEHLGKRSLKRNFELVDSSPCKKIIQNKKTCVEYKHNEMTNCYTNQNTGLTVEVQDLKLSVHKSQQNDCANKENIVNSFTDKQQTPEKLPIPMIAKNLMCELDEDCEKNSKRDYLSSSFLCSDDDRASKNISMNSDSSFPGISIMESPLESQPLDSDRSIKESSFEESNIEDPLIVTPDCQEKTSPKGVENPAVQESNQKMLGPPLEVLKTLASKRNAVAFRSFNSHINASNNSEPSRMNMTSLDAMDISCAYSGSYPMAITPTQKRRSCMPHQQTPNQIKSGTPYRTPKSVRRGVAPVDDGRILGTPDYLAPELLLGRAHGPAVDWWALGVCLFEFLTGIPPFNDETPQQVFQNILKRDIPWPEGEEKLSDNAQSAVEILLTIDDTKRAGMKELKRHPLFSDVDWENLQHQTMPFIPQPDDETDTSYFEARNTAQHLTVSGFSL
UniProt P62140: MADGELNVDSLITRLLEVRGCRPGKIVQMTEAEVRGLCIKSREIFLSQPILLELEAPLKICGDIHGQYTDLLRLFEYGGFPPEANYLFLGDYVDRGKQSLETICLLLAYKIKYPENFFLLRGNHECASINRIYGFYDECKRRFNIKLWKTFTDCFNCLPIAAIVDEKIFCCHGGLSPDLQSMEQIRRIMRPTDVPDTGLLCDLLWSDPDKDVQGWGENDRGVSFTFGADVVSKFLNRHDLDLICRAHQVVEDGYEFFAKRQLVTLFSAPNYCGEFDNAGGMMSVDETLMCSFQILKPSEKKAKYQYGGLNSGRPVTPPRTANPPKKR
UniProt P67775: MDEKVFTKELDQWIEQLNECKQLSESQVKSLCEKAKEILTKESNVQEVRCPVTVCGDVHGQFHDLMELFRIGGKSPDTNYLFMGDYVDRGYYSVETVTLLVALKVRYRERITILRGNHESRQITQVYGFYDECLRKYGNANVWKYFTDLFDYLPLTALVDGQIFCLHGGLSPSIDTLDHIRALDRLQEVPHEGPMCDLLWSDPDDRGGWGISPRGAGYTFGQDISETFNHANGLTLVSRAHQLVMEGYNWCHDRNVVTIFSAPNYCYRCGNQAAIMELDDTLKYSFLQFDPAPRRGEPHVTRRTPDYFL

Results are given in words; binding and its absence hold for the method and conditions named. Binding seen in cells or lysates may run through a third protein. Some entries that bind do so weakly or less than the wild type.

For assay [1], the target named is microtubule-associated serine-threonine-like kinase (MASTL) (human (endogenous in HeLa)) (UniProt Q96GX5). Put plainly: proximity ligation; in situ PLA with pairs of primary antibodies on cells across interphase, prophase, prometaphase, metaphase, anaphase and telophase; dots counted with Imaris; detects two proteins within 40 nm.
Assay [2] has the same target. Put plainly: co-IP; endogenous proteins from prometaphase and early mitotic exit (+RO3306) HeLa lysates; IgG- or primary-antibody-bound protein A/G magnetic beads mixed with lysates 16-18 h at 4°C; western blot; in some cases a second round of depletion 2 h at room temperature. In general terms: Immunoblotting shows a protein as a band on a membrane.
Assay [3] has as its target catalytic β subunit of PP1 (PPP1CB) (human (endogenous in HeLa)) (UniProt P62140). The assay is described as above.

In the case of “catalytic subunit of PP2A, PP2A/C (PPP2CA) (from UniProt P67775 1-309) (enzyme)”, the binding entry in assay [1] and in assay [2] was “no binding” each time.
As to “catalytic β subunit of PP1 (PPP1CB) (from UniProt P62140 1-327) (enzyme)”, in assay [1], the binding entry is on record as “binds”.
“microtubule-associated serine-threonine-like kinase (MASTL) (from UniProt Q96GX5 1-879) (enzyme)”: in assay [3], the binding entry was “binds weakly”.
